For at least one compound, name, drawing or mass did not settle the structure.
Assays:
[1] = tested on: human mammary carcinoma MX-1 xenograft; assay: Antitumor therapeutic effect in nude mice bearing MX-1 xenograft; assay type: in vivo
Procedure: (§1) Athymic nude mice bearing the nu/nu gene were used for human breast tumor MX-1 xenograft (FIGS. 3 and 4) and human brain glioma U87 GM xenograft (FIG. 5). Nude mice were obtained from National Cancer Institute, Frederick, Md. Male mice 6 weeks old or older weighing 22 g or more were used for experiments with subcutaneous tumor inoculation as described previously.^62 Drug was administrated via the tail vein by iv injection. Tumor volumes were assessed by measuring length×width×height (or width) by using caliper. Vehicle used was 20 μL DMSO in 180 μL saline. All animal studies were conducted in accordance with the guidelines of the U.S. National Institutes of Health Guide for the Care and Use of Animals and the protocol approved by the Institutional Animal Care and Use Committee.
Animals. Athymic nude mice bearing the nu/nu gene were obtained from NCI, Frederick, Md. and used for all human tumor xenografts. Male nude mice 6 weeks or older weighing 20-24 g or more were used. Compounds were administered via the tail vein for i.v. injection or infusion as described previously.^59 A typical formulation for chemotherapeutic studies for each drug was dissolved in DSMO to make a 25 mg/ml fresh solution, 0.4 ml of this solution was mixed with 0.3 ml of Tween 80, plus 1.3 ml to make 2 ml of 5 mg/ml solution. […] Tumor volume was assessed by measuring length×width×height (or width) by using a caliper. […]
The therapeutic effects of a drug against human tumor xenografts in nude mice, under the optimal therapeutic conditions but without any lethality due to drug toxicity, the following degrees of therapeutic effects are defined and calculated by the following formula: […]
[formula] • Where T0 and Tx are as specified as above. • Tumor disappearance (complete remission or CR) is defined by the effect where [Tx=0] for a period of time (in days) for a proportion of animals (NCR/N), where N is the total number of animals in the group, and NCR is the number of mice in the group that achieved CR. • Tumor relapse is quantitatively calculated by [The Day tumor relapsed(Drelp)−The Day CR achieved(DCR)] […]

[2] = tested on: human glioma U87 GM s.c. xenograft; assay: Therapeutic effect in nude mice bearing U87 glioma xenograft; assay type: in vivo
Procedure: as §1
The therapeutic effects of N-mustard compounds, BO-1049, 1051 and 1055, against human glioma U87 GM s.c. xenograft in nude mice were given in FIG. 5, A and B. U87 glioma is known to be refractory tumor that can not be effectively treated with cell-cycle specific anti-tumor drugs such as taxol, epothilones, or arabinosylcytosine. However, cell-cycle non-specific drugs such as alkylating agent, cyclophosphamide or BCNU, yields better therapeutic results. […]
Animals. […] Tumor volume was assessed by measuring length×width×height (or width) by using a caliper. […]

[3] = 30 mg/kg, Q2D × 5, i.v., start Day 8

With `CN(C)CCNC(=O)c1cccc(NC(=O)Nc2ccc(N(CCCl)CCCl)cc2)c1.Cl` [BO-1055, 3-(3-{4-[Bis(2-chloroethyl)amino]phenyl}ureido)-N-(2-dimethylaminoethyl)benzamide hydrochloride] the “Therapeutic effect: complete tumor remission (CR)” value [1, 3] was 3/3 CR on D20, 20, 20, the “Therapeutic effect: relapse” value [1, 3] was “No relapse on D70” and the “Tumor remission achieved” value ([1]; doses and schedules as in Table 2 (30-150 mg/kg, i.v.)) was “complete tumor remission”. The tumor-growth suppression ([2]; 30 mg/kg, Q2D×5, i.v.-injection) was “complete tumor-growth suppression” and the “therapeutic effect compared with cyclophosphamide” value ([2]; BO-1049 150, BO-1051 100, BO-1055 30 mg/kg vs cyclophosphamide 80 mg/kg, all Q2D×5, parallel study) was “superior therapeutic effects than cyclophosphamide”.
